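Methionyl-tRNA synthetase (putative), Leishmania donovani (UniProt E9BF75). Primary screen of methionyl-tRNA synthetase; the read-out is not stated. The test concentration is not given. Values are per cent inhibition. About 68,000 compounds were tested under these conditions; 0.035% (about 24) showed 50% or more at least once.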

Sequences of proteins named here, by UniProt entry; tags and fusion partners are left off.
UniProt E9BF75, entry or part of it: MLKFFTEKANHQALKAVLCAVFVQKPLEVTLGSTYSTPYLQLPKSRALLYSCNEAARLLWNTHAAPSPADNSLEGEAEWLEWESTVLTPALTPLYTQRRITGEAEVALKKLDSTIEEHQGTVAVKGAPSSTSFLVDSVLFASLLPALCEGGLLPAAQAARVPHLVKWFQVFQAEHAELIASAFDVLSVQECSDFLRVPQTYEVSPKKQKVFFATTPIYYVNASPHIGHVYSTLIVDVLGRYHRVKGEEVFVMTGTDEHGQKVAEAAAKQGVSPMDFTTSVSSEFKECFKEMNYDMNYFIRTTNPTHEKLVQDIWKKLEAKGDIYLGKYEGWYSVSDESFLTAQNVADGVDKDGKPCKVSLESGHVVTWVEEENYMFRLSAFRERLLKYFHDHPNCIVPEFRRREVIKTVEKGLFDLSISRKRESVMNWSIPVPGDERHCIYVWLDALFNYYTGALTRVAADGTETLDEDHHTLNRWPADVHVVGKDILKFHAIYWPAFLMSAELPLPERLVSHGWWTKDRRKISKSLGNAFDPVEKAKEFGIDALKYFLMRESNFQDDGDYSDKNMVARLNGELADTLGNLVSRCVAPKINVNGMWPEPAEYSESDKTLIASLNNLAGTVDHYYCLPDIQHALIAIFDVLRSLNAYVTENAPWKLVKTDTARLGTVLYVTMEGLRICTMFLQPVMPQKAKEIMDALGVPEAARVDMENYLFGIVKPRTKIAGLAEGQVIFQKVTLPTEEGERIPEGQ

All values are in %.
How 0% and 100% were set is not recorded. Most values in the screen are low, and negative values occur.
This is an unselected part of the compounds tested.

{"compound": "N#Cc1ccccc1CN1C[C@@H]2CC[C@H](C1)N(CC1CC1)C2=O", "Inhibition": 9.783}
{"compound": "O=C(CCSc1ccccc1F)N1CCN(c2cnccn2)CC1", "Inhibition": 5.396}
{"compound": "Cn1nc(C(=O)N2CCOCC2)cc1C(=O)Nc1ccc(Cl)cc1Cl", "Inhibition": -1.657}
{"compound": "Cc1ccc(-n2cnc(Cl)c2CO)cc1", "Inhibition": 20.92}
{"compound": "Cn1cnnc1C1CCCN(C(=O)COc2ccccc2Cl)C1", "stereo": "centres unmarked", "Inhibition": 25.41}
{"compound": "CCc1cn[nH]c1C1CCN(c2cc(C)c3cc(OC)ccc3n2)CC1", "Inhibition": 19.86}
{"compound": "CC(NCc1ccccc1Br)c1ccc2[nH]c(=O)[nH]c2c1", "stereo": "centres unmarked", "Inhibition": 7.19}
{"compound": "CC(=O)N1CCc2c(nc(-c3ccncc3)nc2N(C)CC(O)CO)C1", "stereo": "centres unmarked", "Inhibition": 12.59}
{"compound": "Cc1ccc(-c2nnc(CN3CCCC(O)(CO)CC3)o2)n1C", "stereo": "centres unmarked", "Inhibition": 7.326}
{"compound": "CCOCCCC(=O)NCc1ccnc(N2CCN(C)CC2)c1", "Inhibition": -7.337}
{"compound": "CCC(NC(=O)Nc1ccc(OC)c(C)c1)c1ccncc1", "stereo": "centres unmarked", "Inhibition": 18.79}
{"compound": "COc1ccc(C[C@H]2CN(c3nnc(C)s3)CC[C@H]2OC)cc1", "Inhibition": 10.75}
{"compound": "CSc1nccc(N2CCC(NCc3nc(C)cc(C)n3)CC2)n1", "Inhibition": 17.65}
{"compound": "Cc1nonc1OCCNC(=O)COc1ccc(F)cc1F", "Inhibition": 15.26}
{"compound": "O=C(C1CCOCC1)N1CC[C@@H](N2CCOCC2)[C@@H]1Cc1ccccc1", "Inhibition": 1.307}
{"compound": "Cc1ccc(C(C(=O)NC(C)(C)CN2CCCC2)N(C)C)cc1", "stereo": "centres unmarked", "Inhibition": 11.76}
{"compound": "CC(=O)N1CCC(CN2CCN(Cc3nccn3C)C(C)C2)CC1", "stereo": "centres unmarked", "Inhibition": 8.571}
{"compound": "Cc1cc(NC(=O)NCCO)nn1-c1ccc(Cl)cc1Cl", "Inhibition": 10.45}
{"compound": "CN(C)c1nccc(CNS(=O)(=O)c2cc(Cl)cc(Cl)c2)n1", "Inhibition": 20.63}
{"compound": "Cc1cc(C2CCCN(Cc3ncc(C(C)C)o3)C2)n[nH]1", "stereo": "centres unmarked", "Inhibition": 14.38}
{"compound": "Cc1ccc(C(C)NC(=O)Cc2c(C)nc3cc(=O)[nH]n3c2C)s1", "stereo": "centres unmarked", "Inhibition": 24.15}
{"compound": "CC(C)CN1C(=O)C2(CCN(Cc3cccs3)C2)c2ccccc21", "stereo": "centres unmarked", "Inhibition": 6.402}
{"compound": "CC(C)NC(=O)CNC(=O)c1csc(Cc2ccccc2F)n1", "Inhibition": 19.05}
{"compound": "CC(C)N(C)CC(=O)NC1CCc2nccn2C1", "stereo": "centres unmarked", "Inhibition": 1.951}
{"compound": "CCOCC(C)(C)NC(=O)Nc1cc(F)ccc1OC", "Inhibition": 8.815}
{"compound": "Cn1cc(CNc2ncnc3c2CCN(Cc2ccsc2)CC3)cn1", "Inhibition": 9.756}
{"compound": "Cc1ccc(S(=O)(=O)N2C[C@@H]3CCN[C@@H]3C2)cc1", "Inhibition": 10}
{"compound": "Cc1cc(N2CCOC(c3ccccn3)C2)nc(N)n1", "stereo": "centres unmarked", "Inhibition": 13.37}
{"compound": "CS(=O)(=O)NCc1cncc2c1CCN(C(=O)c1cccnc1)C2", "Inhibition": 11.23}
{"compound": "Fc1ccc(-c2cnc(C3CCNCC3)cn2)cc1", "Inhibition": 12.73}
{"compound": "CN(C)c1ncc(I)c(C2CCCCN2C)n1", "stereo": "centres unmarked", "Inhibition": 11.75}
{"compound": "O=C(Cc1ccsc1)N1C[C@@H]2OCCN(CC3CCCO3)[C@@H]2C1", "stereo": "some centres unmarked", "Inhibition": 8.75}
{"compound": "c1cc(-c2noc(CN3CCc4c(ncn4C4CC4)C3)n2)cs1", "Inhibition": 17.68}
{"compound": "Cc1cc(NC2CCc3ncnn3C2)n2nc(C(F)(F)F)nc2n1", "stereo": "centres unmarked", "Inhibition": 15.57}
{"compound": "COCCCNC(=O)Cn1c(-c2cccc(Cl)c2)nc(C)cc1=O", "Inhibition": 5.707}
{"compound": "Cc1ccc(C(=O)N2CCC(O)(CN3CCc4ccccc4C3)C2)s1", "stereo": "centres unmarked", "Inhibition": 8.706}
{"compound": "COc1ccc(C(=O)NCCCn2ccnc2)c(OC)n1", "Inhibition": 1.684}
{"compound": "CN(C)C(=O)CN1CCC2(CC1)CC(=O)c1ccc3ccccc3c1O2", "Inhibition": 9.167}
{"compound": "CCc1noc(CN(CC)C(=O)CC2C(=O)NCCN2CC=C(C)C)n1", "stereo": "centres unmarked", "Inhibition": 2.5}
{"compound": "O=C(CCCN1CCCCC1)N1CCN(C(=O)c2ccc[nH]2)CC1", "Inhibition": 4.337}
{"compound": "CN(C)C(=O)NCc1ncn2c1CN(Cc1cccs1)CCC2", "Inhibition": 10.1}
{"compound": "CCN(CC)c1nc2ccsc2c(=O)n1CCC(=O)NCc1cccs1", "Inhibition": -5.995}
{"compound": "COCC(=O)N1CCC2(CC1)CN(c1ncccn1)CCO2", "Inhibition": 18.13}
{"compound": "N#CCCn1cnc2c(Br)cccc2c1=O", "Inhibition": 4.749}
{"compound": "Cc1nc(CCCNC(=O)C2CC(=O)N(C3CC3)C2)sc1C", "stereo": "centres unmarked", "Inhibition": 8.5}
{"compound": "COCCC(=O)NCc1ccc(-c2ccccc2C(=O)O)cn1", "Inhibition": 17.3}
{"compound": "CO[C@H]1C[C@@H](O)C12CCN(Cc1nc(C(F)(F)F)no1)CC2", "Inhibition": 17.49}
{"compound": "COC1COC2(CCN(Cc3cccc(C#N)c3)CC2)C1", "stereo": "centres unmarked", "Inhibition": 18.73}

The first 4 entries again:

Compound	Inhibition
N#Cc1ccccc1CN1C[C@@H]2CC[C@H](C1)N(CC1CC1)C2=O	9.783
O=C(CCSc1ccccc1F)N1CCN(c2cnccn2)CC1	5.396
Cn1nc(C(=O)N2CCOCC2)cc1C(=O)Nc1ccc(Cl)cc1Cl	-1.657
Cc1ccc(-n2cnc(Cl)c2CO)cc1	20.92

From ChEMBL document CHEMBL3988442, “University of Dundee, Small-Polar-MMV Screening Library” (2021).